The text below walks through data of doi:10.1101/150714.

The target of this experiment is T1, Brc1 fragment 3-4 in pGBKT7 (S. pombe) (UniProt Q10337).
T1 sequence: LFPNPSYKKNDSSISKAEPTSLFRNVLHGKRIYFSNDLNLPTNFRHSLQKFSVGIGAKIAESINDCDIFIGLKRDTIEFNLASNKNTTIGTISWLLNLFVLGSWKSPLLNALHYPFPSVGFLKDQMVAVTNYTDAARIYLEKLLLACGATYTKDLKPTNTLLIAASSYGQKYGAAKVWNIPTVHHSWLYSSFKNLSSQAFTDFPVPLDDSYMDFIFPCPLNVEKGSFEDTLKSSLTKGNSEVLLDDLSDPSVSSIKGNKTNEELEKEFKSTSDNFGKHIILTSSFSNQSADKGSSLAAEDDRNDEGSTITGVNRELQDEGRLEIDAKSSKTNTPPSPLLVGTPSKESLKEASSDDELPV
In words: two-hybrid.

These are yes or no findings as the source states them, for the method shown.

B1: full length Rhp18 in pGADT7 (protein, UniProt O74747 1-387)
chain: MNELDATDPSDWNQTKIPSLKGLDSSLRCLICHEYFRAPLITSCSHTFCSFCIRDYLREHPMCPACRAPEQESRLRKNTILEEILESFKVIRPTLFEFLKVENVPKPVLQAPETVIAQDSASGDEEWEDDLASNSSPASIAKKTSRDSKKRKREDLVHCPACSNLVPHNQINQHLDSCLNSPSSPSSSSSPYKNKDNSKSNSLLSFKTDDDSITKRRLRSFNSADELPLKDRVRLPKLTYALLSESKIRSKLSEMGLPTDGHKQLLQRRHAKWVTLYNSNLDQKQPVSKRNLIRQLIDWERVQSKSIGVEKEKLGGGDWEKAYAEDFADLINRAKQSTTNKNDSLRNTAVESSTEPSTSNGFPATSVSPPLTIDLTNSQTGSDGPQS
With B1, the binding result is on record as “no binding”.
